Data taken from PMC9027599, “Secondary Metabolites in Basil, Bio-Insecticide, Inhibition Effect, and In Silico Molecular Docking against Proteolytic Enzymes of the Red Palm Weevil (Rhynchophorus ferrugineus)” (Plants, 2022).

What was measured:
R. ferrugineus adults = settings: probit analysis of adult mortality; value ± standard error
[1] = tested on: R. ferrugineus fourth larvae; assay: Topical application (contact insecticide) on larvae; assay type: in vivo, Rhynchophorus ferrugineus; settings: probit analysis of larval mortality; value ± standard error

O=C(O)C[C@H](C(=O)O)[C@@H](O)C(=O)O [Isocitric acid]
Slope (Adult) (R. ferrugineus adults): 2.12 ± 0.19
Slope (4th Larvae) [1]: 1.08 ± 0.30

O=C(/C=C/c1ccc(O)c(O)c1)O/C=C\c1ccc(O)c(O)c1 [Nepetoidin B]
Slope (Adult) (R. ferrugineus adults): 2.82 ± 0.20
Slope (4th Larvae) [1]: 1.97 ± 0.23

C[C@@H]1O[C@@H](OC[C@H]2O[C@@H](Oc3c(-c4ccc(O)c(O)c4)oc4cc(O)cc(O)c4c3=O)[C@H](O)[C@@H](O)[C@@H]2O)[C@H](O)[C@H](O)[C@H]1O [Quercetin-3-O-rutinoside]
Slope (Adult) (R. ferrugineus adults): 2.89 ± 0.24
Slope (4th Larvae) [1]: 1.42 ± 0.29

O=C(/C=C/c1ccc(O)c(O)c1)O[C@H](Cc1ccc(O)c(O)c1)C(=O)O [Rosmarinic acid]
Slope (Adult) (R. ferrugineus adults): 2.61 ± 0.22
Slope (4th Larvae) [1]: 1.94 ± 0.25

COc1ccc(-c2cc(=O)c3c(O)c(OC)c(OC)cc3o2)cc1 [Salvigenin, 5-Hydroxy-6,7,4′-trimethoxyflavone]
Slope (Adult) (R. ferrugineus adults): 2.87 ± 0.20
Slope (4th Larvae) [1]: 2.03 ± 0.22

C[C@H]1[C@H](C)CC[C@]2(C(=O)O)CC[C@]3(C)C(=CC[C@@H]4[C@@]5(C)CC[C@H](O)C(C)(C)[C@@H]5CC[C@]43C)[C@H]12 [Ursolic acid]
Slope (Adult) (R. ferrugineus adults): 2.85 ± 0.23
Slope (4th Larvae) [1]: 1.46 ± 0.28
